By UniProt entry, the sequences of proteins in these tests, tags left out. Where a name states a change or a piece, a line headed by the entry shows the natural chain unless it says otherwise.
UniProt I7LUX8: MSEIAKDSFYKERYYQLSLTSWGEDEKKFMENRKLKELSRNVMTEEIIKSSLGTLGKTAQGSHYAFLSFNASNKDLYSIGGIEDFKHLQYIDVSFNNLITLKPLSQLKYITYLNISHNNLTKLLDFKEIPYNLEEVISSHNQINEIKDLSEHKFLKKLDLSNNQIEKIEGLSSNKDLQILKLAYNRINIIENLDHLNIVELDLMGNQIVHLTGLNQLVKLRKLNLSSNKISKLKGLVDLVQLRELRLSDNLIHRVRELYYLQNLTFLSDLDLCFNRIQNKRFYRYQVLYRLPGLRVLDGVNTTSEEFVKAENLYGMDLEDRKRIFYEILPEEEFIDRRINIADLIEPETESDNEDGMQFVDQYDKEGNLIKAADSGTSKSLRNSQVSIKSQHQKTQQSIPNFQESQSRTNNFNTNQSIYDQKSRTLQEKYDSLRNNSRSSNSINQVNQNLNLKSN
UniProt I7M670: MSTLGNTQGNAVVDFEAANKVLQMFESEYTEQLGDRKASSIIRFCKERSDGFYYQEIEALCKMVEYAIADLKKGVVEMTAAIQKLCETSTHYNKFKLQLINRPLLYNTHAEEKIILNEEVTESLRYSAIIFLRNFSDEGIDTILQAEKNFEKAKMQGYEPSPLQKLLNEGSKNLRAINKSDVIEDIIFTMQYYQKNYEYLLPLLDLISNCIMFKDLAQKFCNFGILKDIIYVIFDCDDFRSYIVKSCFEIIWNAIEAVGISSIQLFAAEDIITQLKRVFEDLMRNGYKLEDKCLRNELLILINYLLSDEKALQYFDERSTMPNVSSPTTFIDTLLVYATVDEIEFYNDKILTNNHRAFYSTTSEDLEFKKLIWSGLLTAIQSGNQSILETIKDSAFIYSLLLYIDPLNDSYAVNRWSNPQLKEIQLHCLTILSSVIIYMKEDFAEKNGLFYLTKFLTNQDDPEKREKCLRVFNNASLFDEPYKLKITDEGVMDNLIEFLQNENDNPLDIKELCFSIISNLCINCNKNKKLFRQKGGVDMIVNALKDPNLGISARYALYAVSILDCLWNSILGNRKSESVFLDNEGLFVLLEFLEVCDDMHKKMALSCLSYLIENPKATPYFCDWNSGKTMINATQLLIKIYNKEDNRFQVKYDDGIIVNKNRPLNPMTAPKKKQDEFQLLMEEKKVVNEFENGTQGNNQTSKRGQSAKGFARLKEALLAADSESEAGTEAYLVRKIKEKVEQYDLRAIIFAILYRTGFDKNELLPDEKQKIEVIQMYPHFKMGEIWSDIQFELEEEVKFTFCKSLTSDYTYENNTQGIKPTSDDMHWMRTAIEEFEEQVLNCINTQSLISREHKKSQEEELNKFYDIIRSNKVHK
UniProt I7LVL5: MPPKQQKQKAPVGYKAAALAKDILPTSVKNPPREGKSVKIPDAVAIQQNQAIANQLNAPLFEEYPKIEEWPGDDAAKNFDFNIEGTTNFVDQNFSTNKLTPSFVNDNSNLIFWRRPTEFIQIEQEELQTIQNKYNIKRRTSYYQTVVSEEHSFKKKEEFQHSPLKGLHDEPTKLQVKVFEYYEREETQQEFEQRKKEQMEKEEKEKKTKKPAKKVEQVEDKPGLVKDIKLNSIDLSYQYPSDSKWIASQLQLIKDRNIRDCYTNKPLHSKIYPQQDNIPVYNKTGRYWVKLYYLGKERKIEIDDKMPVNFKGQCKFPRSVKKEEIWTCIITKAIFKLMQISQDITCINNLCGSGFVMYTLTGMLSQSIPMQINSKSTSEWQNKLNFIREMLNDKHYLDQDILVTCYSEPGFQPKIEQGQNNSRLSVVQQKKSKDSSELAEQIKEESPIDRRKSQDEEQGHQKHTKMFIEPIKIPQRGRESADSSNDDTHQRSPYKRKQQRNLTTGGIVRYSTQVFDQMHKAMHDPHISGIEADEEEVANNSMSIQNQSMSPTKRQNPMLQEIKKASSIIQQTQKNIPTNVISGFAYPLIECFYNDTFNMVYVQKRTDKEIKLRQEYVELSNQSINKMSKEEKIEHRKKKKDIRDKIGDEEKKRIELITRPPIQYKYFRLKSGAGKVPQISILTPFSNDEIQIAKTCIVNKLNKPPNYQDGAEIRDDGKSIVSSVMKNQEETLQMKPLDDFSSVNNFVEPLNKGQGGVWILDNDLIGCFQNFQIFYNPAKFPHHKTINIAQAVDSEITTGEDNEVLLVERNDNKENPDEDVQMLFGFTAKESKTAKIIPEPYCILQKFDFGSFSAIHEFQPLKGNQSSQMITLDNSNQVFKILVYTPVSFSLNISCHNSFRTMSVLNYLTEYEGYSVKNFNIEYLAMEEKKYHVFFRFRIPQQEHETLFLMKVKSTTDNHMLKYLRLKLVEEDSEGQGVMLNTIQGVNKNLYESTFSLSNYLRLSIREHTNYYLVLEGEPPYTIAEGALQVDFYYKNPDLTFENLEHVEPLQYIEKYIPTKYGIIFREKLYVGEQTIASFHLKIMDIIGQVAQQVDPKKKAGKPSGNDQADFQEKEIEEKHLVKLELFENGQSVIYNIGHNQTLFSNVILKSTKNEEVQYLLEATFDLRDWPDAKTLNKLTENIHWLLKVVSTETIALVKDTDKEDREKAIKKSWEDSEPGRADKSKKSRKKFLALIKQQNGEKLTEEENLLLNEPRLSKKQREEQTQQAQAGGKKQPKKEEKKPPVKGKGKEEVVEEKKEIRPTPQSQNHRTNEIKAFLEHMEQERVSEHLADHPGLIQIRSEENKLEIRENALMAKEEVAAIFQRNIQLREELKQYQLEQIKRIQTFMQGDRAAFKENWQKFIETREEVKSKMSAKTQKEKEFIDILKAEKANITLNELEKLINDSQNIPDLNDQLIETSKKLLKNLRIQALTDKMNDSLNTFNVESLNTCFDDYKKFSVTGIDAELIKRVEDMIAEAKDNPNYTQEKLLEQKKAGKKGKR
UniProt Q23G22: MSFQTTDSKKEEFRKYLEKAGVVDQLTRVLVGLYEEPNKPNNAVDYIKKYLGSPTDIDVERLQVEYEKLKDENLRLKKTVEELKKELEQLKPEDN

According to paper PMC8175508:

Legend:
[1] = biological target: Cfap246-HA-BirA* (Tetrahymena thermophila) (UniProt I7LUX8); assay: proximity labelling; BioID in Tetrahymena cells expressing C-terminal HA-BirA* fusions under native promoters; starved cells, 50 µM biotin, 4 h at 30 °C; axonemes lysed (0.4% SDS, 0.5 M NaCl); biotinylated ciliary proteins bound to streptavidin Dynabeads and identified by LC-MS/MS; wild-type cilia as negative control
[2] = biological target: Cfap69-HA-BirA* (Tetrahymena thermophila) (UniProt I7M670); assay: as above
[3] = biological target: Spef2A-HA-BirA* (Tetrahymena thermophila) (UniProt Q22AX1); assay: as above
[4] = biological target: Adgb-3HA (Tetrahymena thermophila) (UniProt I7LVL5); assay: affinity purification with mass spectrometry; 3HA-tagged bait under native promoter; cilia extracted with NP-40 and NaCl (final 1% and 0.6 M), supernatant diluted 4x; anti-HA agarose overnight at 4 °C; washes with 150 mM NaCl, 0.25% NP-40; bound proteins identified by mass spectrometry; wild-type cilia as control
[5] = biological target: Cfap246-HA-BirA* (Tetrahymena thermophila) (UniProt I7LUX8); assay: proximity labelling; BioID in Tetrahymena cells expressing C-terminal HA-BirA* fusions under native promoters; starved cells, 50 µM biotin, 4 h at 30 °C; axonemes lysed (0.4% SDS, 0.5 M NaCl); biotinylated ciliary proteins bound to streptavidin Dynabeads and identified by LC-MS/MS; wild-type cilia as negative control; remark: listed apart in the source
[6] = biological target: Cfap69-HA-BirA* (Tetrahymena thermophila) (UniProt I7M670); assay: as above; remark: listed apart in the source
[7] = biological target: Spef2A-HA-BirA* (Tetrahymena thermophila) (UniProt Q22AX1); assay: as above; remark: listed apart in the source

Measured: binding

Androglobin/Adgb (from UniProt I7LVL5)
binds: [1] | [2] | [3]

Cfap69 (from UniProt I7M670)
binds: [4] | [1] | [3]

Cfap174 (from UniProt Q23G22)
binds: [4] | [1] | [2] | [3]

Cfap246 (from UniProt I7LUX8)
binds: [4] | [2] | [3]

B1: Tt170 (protein, UniProt Q22NC6 1-154)
chain: MNSSLKYGKGSRPEDDYQQYNNTQKGFNNTQSSFGTNPASLKGKLMSLEEMIKNIADEMNFHKKEVQILKSEKDTLQSVLSMKTQDVKKTLTSELMRIEEEMKRHFAHQKAENARLQQQITSLKGEKTALQQQLLGLQRRITELEMQVGNEDNH
binds: [5] | [6] | [7]

Where two headings read alike, the source gives them in different places. Results are given in words; binding and its absence hold for the method and conditions named. Binding seen in cells or lysates may run through a third protein. Here binding means that the protein was enriched with, or labelled near, the bait; the list need not be complete.
